Among the data in PubChem BioAssay AID248 (DTP/NCI, 2004) are survivor count and T/C values, retold here.

The assay has as its system L1210 leukemia ip in BDF1 mice, survival T/C. The assay is described as follows: NCI In Vivo Anticancer Drug Screen. Data for tumor model L1210 Leukemia (intraperitoneal) in B6D2F1 (BDF1) mice. To be noted: T/C endpoint: mean survival time, higher T/C = longer survival; for T/C: schedule: Q02DX010 (sc), vehicle: steroid suspending solution.
Setting [1] is: dose: 200.0 mg/kg/injection, schedule: Q01DX009 (ip), vehicle: Klucel (hydroxypropylcellulose) (HPC).
[2] abbreviates: dose: 400.0 mg/kg/injection, schedule: Q01DX009 (ip), vehicle: Klucel (hydroxypropylcellulose) (HPC).
[3] abbreviates: dose: 400.0 mg/kg/injection, schedule: Q01DX009 (ip), vehicle: saline with Tween-80.
[4] abbreviates: dose: 200.0 mg/kg/injection, schedule: Q01DX009 (ip), vehicle: saline with Tween-80.
Where [5] appears, read: dose: 400.0 mg/kg/injection, schedule: Q04DX003 (ip), vehicle: saline.
[6] abbreviates: dose: 400.0 mg/kg/injection, schedule: Q04DX003 (ip), vehicle: saline with Tween-80.

The list is a part of this screen's results and no random one: it gathers tests that were run many times, whatever their T/C, doses with no T/C, and many T/C values between a quarter and a half above the control. Other doses and runs of a compound stand elsewhere. T/C gives the treated animals as a percentage of the vehicle group. Some entries give survivors of the animals treated and no T/C: the source holds a T/C of zero for them, seemingly a mark for toxic or unscored doses. Some doses without a T/C left all or most animals alive at the check, yet need not have been tolerated: survival well below the control is almost never listed, so the zero probably covers shortened survival too. Counts of survivors are from the toxicity check (mostly the fifth day) where no day follows; animals may have died later. Schedules are NCI's codes, read here as Q, the interval in days (D) or hours (H), X, the number of doses. Some doses were run more than once; the results are listed from low to high. Some schedules carry Z or #; the key to these is not given. For survival time, the PubChem record calls one and a half times the control and up active, and a quarter to a half above the control has no call in these data; cut-offs in other NCI protocols can differ. Marks such as (2×) count equal records among those shown.

Consider `Clc1ccc(NC2=NCCCS2)c2ccccc12`, for which the survivor count reads like this: under setting [1], 0 of 6; under setting [2], 0 of 6; (dose: 400.0 mg/kg/injection, schedule: Q04DX003 (ip), vehicle: Klucel (hydroxypropylcellulose) (HPC)) 1 of 6.
Take `CCCCCCCCCCSC#N`: the survivor count (dose: 80.0 mg/kg/injection, schedule: Q01DX001 (ip), vehicle: saline) is recorded as 1 of 4; the survivor count (dose: 100.0 mg/kg/injection, schedule: Q01DX001 (ip), vehicle: saline) is listed as 1 of 4; the survivor count (dose: 200.0 mg/kg/injection, schedule: Q01DX001 (ip), vehicle: saline) is 0 of 4; the survivor count (dose: 400.0 mg/kg/injection, schedule: Q01DX001 (ip), vehicle: saline) is given as 0 of 4.
On to `ClCc1ccncc1`, for which the survivor count (dose: 400.0 mg/kg/injection, schedule: Q01DX009 (ip), vehicle: saline) was 0 of 6.
For the compound `CCCCCCCCCCCC(=O)NC(=S)Nc1ccc(C)c(C)c1`, the survivor count was 6 of 6 (dose: 200.0 mg/kg/injection, schedule: Q01DX001 (ip), vehicle: saline with Tween-80); 5 of 6 and 3 of 3 under setting [3].
Regarding `CN(C)C(=S)Sc1ccc([N+](=O)[O-])cc1[N+](=O)[O-]`, the survivor count is, setting by setting: (dose: 100.0 mg/kg/injection, schedule: Q04DX003 (ip), vehicle: Klucel (hydroxypropylcellulose) (HPC)) 6 of 6; (dose: 200.0 mg/kg/injection, schedule: Q04DX003 (ip), vehicle: Klucel (hydroxypropylcellulose) (HPC)) 6 of 6; under setting [2], 6 of 6.
Take `COc1ccc(NC(=S)NC(=O)COc2ccccc2)cc1`: the survivor count by setting is: under setting [4], 2 of 3; under setting [3], 1 of 6; (dose: 400.0 mg/kg/injection, schedule: Q04DX002 (ip), vehicle: saline with Tween-80) 1 of 3.
For `O=S(=O)(OC1CCCCC1Br)c1ccc(Br)cc1` (stereo unspecified), the survivor count under setting [4] is given as 3 of 3.
With `C/C=C/C1=C(Cl)C(=O)[C@@H](Cl)[C@@]1(O)C(=O)OC`, the survivor count (dose: 20.0 mg/kg/injection, schedule: Q01DX001 (ip), vehicle: saline) is given as 6 of 6; the survivor count (dose: 40.0 mg/kg/injection, schedule: Q01DX001 (ip), vehicle: saline) is given as 3 of 6; the survivor count (dose: 75.0 mg/kg/injection, schedule: Q01DX001 (ip), vehicle: saline) is 0 of 6; the survivor count (dose: 150.0 mg/kg/injection, schedule: Q01DX001 (ip), vehicle: saline) was 0 of 6; the survivor count (dose: 300.0 mg/kg/injection, schedule: Q01DX001 (ip), vehicle: saline) was 0 of 6.
Regarding `CCN(CC)C(=O)C1C=C2c3cccc4c3c(c(Br)n4C)CC2N(C)C1` (stereo unspecified), the survivor count reads like this: (dose: 200.0 mg/kg/injection, schedule: Q01DX009 (ip), vehicle: saline) 2 of 6; under setting [5], 4 of 6.
As for `CCN=C(c1ccc(NC(=O)c2ccc(C(=O)Nc3ccc(C(=NCC)N(CC)CC)cc3)cc2)cc1)N(CC)CC`, the survivor count reads like this: (dose: 3.75 mg/kg/injection, schedule: Q01DX Z (ip), vehicle: carboxymethylcellulose (CMC)) 0 of 6; (dose: 7.5 mg/kg/injection, schedule: Q01DX Z (ip), vehicle: carboxymethylcellulose (CMC)) 0 of 6; (dose: 15.0 mg/kg/injection, schedule: Q01DX Z (ip), vehicle: carboxymethylcellulose (CMC)) 0 of 6; (dose: 30.0 mg/kg/injection, schedule: Q01DX Z (ip), vehicle: carboxymethylcellulose (CMC)) 0 of 6; (dose: 60.0 mg/kg/injection, schedule: Q01DX Z (ip), vehicle: carboxymethylcellulose (CMC)) 0 of 6; (dose: 120.0 mg/kg/injection, schedule: Q01DX Z (ip), vehicle: carboxymethylcellulose (CMC)) 0 of 6.
On to `CC(=O)C(N=Nc1ccccc1)C(C)=O`, for which the survivor count was 0 of 6 under setting [1] and 0 of 6 under setting [2].
In the case of `Cc1nc2c(N)nnc(N)c2nc1C`, the survivor count is 1 of 6 under setting [1] and 0 of 6 under setting [2].
As for `Cn1[nH]nnc1=S`, the survivor count under setting [6] was 0 of 4.
As for `Nc1nc(N)nc(CBr)n1`, the survivor count by setting is: (dose: 25.0 mg/kg/injection, schedule: Q01DX001 (ip), vehicle: Klucel (hydroxypropylcellulose) (HPC)) 0 of 3; (dose: 100.0 mg/kg/injection, schedule: Q01DX001 (ip), vehicle: Klucel (hydroxypropylcellulose) (HPC)) 2 of 3; (dose: 200.0 mg/kg/injection, schedule: Q01DX001 (ip), vehicle: Klucel (hydroxypropylcellulose) (HPC)) 2 of 3; (dose: 400.0 mg/kg/injection, schedule: Q01DX001 (ip), vehicle: Klucel (hydroxypropylcellulose) (HPC)) 0 of 3.
Take `O=C(C=C(C(F)(F)F)C(F)(F)F)c1ccc(Cl)c2ccccc12`: the survivor count by setting is: (dose: 50.0 mg/kg/injection, schedule: Q01DX009 (ip), vehicle: saline with Tween-80) 1 of 6; (dose: 100.0 mg/kg/injection, schedule: Q04DX003 (ip), vehicle: saline with Tween-80) 3 of 6.
Take `NC(=O)N1C(=O)C=CC1=O`: the survivor count reads like this: (dose: 200.0 mg/kg/injection, schedule: Q04DX002 (ip), vehicle: Klucel (hydroxypropylcellulose) (HPC)) 1 of 3; under setting [2], 2 of 6.
As to `O=C(O)c1cnc(Cl)nc1Nc1ccccc1I`, the survivor count reads like this: (dose: 25.0 mg/kg/injection, schedule: Q01DX009 (ip), vehicle: saline with Tween-80) 6 of 6; (dose: 50.0 mg/kg/injection, schedule: Q01DX001 (ip), vehicle: saline with Tween-80) 6 of 6.
`COc1cc(C=C(C(C)=O)C(C)=O)ccc1O`: the survivor count under setting [6] is on record as 5 of 6.
For the compound `NC(=O)c1nc(C(F)(F)F)[nH]c1C(N)=O`, the survivor count (dose: 400.0 mg/kg/injection, schedule: Q04DX003 (ip), vehicle: water) is 3 of 6.
For the compound `CC(=O)OCC(=O)[C@@]1(O)CC[C@H]2[C@@H]3CCC4=CC(=O)CC[C@]4(C)[C@H]3[C@@H](O)C[C@@]21C`, the T/C runs as follows: (dose: 14.0 mg/kg/injection) 93, 97, 98, 102, 106 % of control; (dose: 22.0 mg/kg/injection) 95, 96, 101, 102, 104 % of control; (dose: 33.0 mg/kg/injection) 98, 99, 101, 104, 105 % of control; (dose: 50.0 mg/kg/injection) 96, 97, 98, 102, 118 % of control; (dose: 75.0 mg/kg/injection) 95, 98, 102, 106, 109 % of control; (dose: 112.0 mg/kg/injection) 96 (2×), 99, 104 % of control (2×).
As to `Br/C=C/C[N+]12CN3CN(CN(C3)C1)C2`, the survivor count (dose: 100.0 mg/kg/injection, schedule: Q04DX003 (ip), vehicle: saline) is listed as 0 of 6; the survivor count (dose: 200.0 mg/kg/injection, schedule: Q04DX003 (ip), vehicle: saline) was 0 of 6; the survivor count under setting [5] was 0 of 6.
With `Clc1ccc(C=NCCN=Cc2ccc(Cl)c(Cl)c2)cc1Cl`, the survivor count (dose: 100.0 mg/kg/injection, schedule: Q01DX009 (ip), vehicle: saline with Tween-80) is 6 of 6.
Turning to `CC1CN=C(c2ccc(NC(=O)c3ccc(C(=O)Nc4ccc(C5=NCC(C)CN5)cc4)c(Cl)c3)cc2)NC1` (stereo unspecified), the survivor count reads like this: (dose: 16.0 mg/kg/injection, schedule: Q01DX015 (ip), vehicle: methylcellulose (MC)) 0 of 6; (dose: 31.0 mg/kg/injection, schedule: Q01DX015 (ip), vehicle: methylcellulose (MC)) 0 of 6; (dose: 62.0 mg/kg/injection, schedule: Q01DX015 (ip), vehicle: methylcellulose (MC)) 0 of 6; (dose: 125.0 mg/kg/injection, schedule: Q01DX015 (ip), vehicle: methylcellulose (MC)) 0 of 6.
